Results are given in words; binding and its absence hold for the method and conditions named. Some entries that bind do so weakly or less than the wild type.
Target: GIP1 (Arabidopsis thaliana) (UniProt Q9M0N8)
Assay: two-hybrid; β-galactosidase filter assay; Y187 cells co-transformed with pGAD10-GIP1 and pGBKT7-GIP1

binding: binds
B1: GIP1 (protein, UniProt Q9M0N8 1-71)
chain: MDEEASRTARESLELVFRMSNILDTGLDRHTLSVLIALCDLGVNPEALATVVKELRRESIPDSVTTTPSIH

Source: article PMC7517941
